Out of some 320,000 compounds screened, about 2,100 (0.66%) were called active. Inconclusive results, whose numbers are uncertain, are shown with a selection of clear calls. Calls come from the whole dose curve; as a rule, active = well fitted inhibition curve with a large enough effect in the signal ratio, with a control signal flat (not every such curve was filed as active); inconclusive = small, poorly fitted or top-dose-only effect, or effect the other way, or a change in a side signal; inactive = flat fitted curve, though single readings scatter; the % refers to the signal ratio. A potency beside an inconclusive call is a rough fit, not a confirmed value.
assay: qHTS Assay for Lipid Storage Modulators in Drosophila S3 Cells; settings: BODIPY lipid droplet fluorescence, 18-24 h, cells fed with added oleic acid; lipid storage change, negative = inhibition: at 46.1 µM (top of the series) unless noted
Summary of the method: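 Drosophila S3 cells loaded with oleic acid (400 uM, as added) and compounds at several concentrations; lipid droplets imaged by 488-nm laser-scanning cytometry, 500–530 nm intensity and object ratio to cell channel. Percent activity normalized to 20 uM Triacsin C.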
% is set by controls: 0 for no effect and ±100 for the full control effect; potency is the fitted concentration of half-maximal effect.

Row | SMILES | lipid storage change, negative = inhibition | Potency
1 | CCOC(=O)c1sc(N)c(C(=O)OCC)c1COC(=O)C1CC(=O)N(Cc2ccco2)C1 (stereo unspecified) | inconclusive: 136% | 
2 | CCN(CC)S(=O)(=O)c1cccc(NC(=O)CNC2CCCCCC2)c1 | inconclusive: 9.88% | 
3 | COc1cc(/C=C/C(=O)O)ccc1OCc1ccccc1C#N | inconclusive: 1.72% | 
4 | CCCn1nc(C(=O)NNC(=O)CSCC(=O)Nc2cc(C)on2)c2ccccc2c1=O | inconclusive | 
5 | N/C(=N\O)c1ccccc1N1CCCCC1 | inconclusive: 13.1% | 
6 | CN1CCC(=NNC(=O)CN(c2cccc(Cl)c2)S(C)(=O)=O)CC1 | inconclusive: 4.27% | 
7 | COCCCN(CC(=O)O)S(=O)(=O)c1cccc(Cl)c1 | inconclusive: -30.8% | 
8 | O=C(c1ccccc1)c1cccs1 | inconclusive: -2.57% | 
9 | c1ccc(CSc2nnc3ccc(-c4ccncc4)nn23)nc1 | inconclusive: 3.72% | 
10 | CN1C/C(=C/c2cccs2)C(=O)/C(=C\c2cccs2)C1 |  | inconclusive: 6.51 µM [falling, single point]
11 | Cn1c(O)c(N=NC(=O)c2cc(-c3cccs3)nc3ccccc23)c2ccccc21 | inconclusive: 89.2% | 
12 | CC(/C=C1\SC(=S)N(CCC(=O)Nc2ccccc2O)C1=O)=C\c1ccccc1 | inconclusive: 3.94% | 
13 | COc1ccc(NS(=O)(=O)c2cccc(NC(=O)CNC(C)=O)c2)cc1 | inconclusive: -17.7% | 
14 | O=C(Cc1ccc(F)cc1)NCCS(=O)(=O)N1CCN(c2ccccc2)CC1 | inconclusive: 20.8% | 
15 | COc1ccc(OCC(=O)N/N=C(\CCC(=O)O)c2cccs2)cc1 | inconclusive: 8.22% | 
16 | COc1cc(OC)cc(C(=O)N2CCN=C2SCc2cccnc2)c1 | inconclusive: 38.6% | 
17 | Cc1ccc(N(C(=O)CNC(=O)c2ccco2)C(C(=O)NCC2CCCO2)c2ccccc2)c(C)c1 (stereo unspecified) | inconclusive: -47% | 
18 | Cc1nnsc1C(=O)N1CCN(c2ccc(C#N)cn2)CC1 | inconclusive: -34.6% | 
19 | O=C(O)CC1Sc2nc3ccccc3n2C1=O (stereo unspecified) |  | inconclusive: 0.146 µM [falling, full curve]
20 | COC(=O)C1=CN(C)C=C(C(=O)OC)C1c1ccsc1 | inconclusive: -19.3% | 
21 | COc1ccc(C(C)=O)cc1CSc1nc2cc(C(=O)O)ccc2c(=O)n1Cc1ccccc1 | inconclusive: 10.4% | 
22 | Cc1ccc(C2C(C#N)=C(N)N(c3ncn[nH]3)C3=C2C(=O)CC(C)(C)C3)cc1 (stereo unspecified) | inactive | 
23 | CCN1C(=O)C(CC(=O)Nc2ccc(OC)cc2)N(CCc2ccc(OC)cc2)C1=S (stereo unspecified) |  | inconclusive: 29.1 µM [cytotoxic, single point]
24 | CC(C)C[C@H](NC(=O)[C@@H]1Cc2c([nH]c3ccccc23)C2c3ccccc3C(=O)N21)C(=O)NCC1CCCO1 (stereo partly specified) | inconclusive: -59.2% | 
25 | COc1ccc(-c2noc(CSc3nc4ccccc4c(=O)n3-c3ccccc3)n2)cc1OC |  | inconclusive: 7.31 µM [rising, partial curve]
26 | CCOC(=O)/C(C)=N/Nc1nc(-c2ccc(NC(C)=O)cc2)cs1 |  | inconclusive: 23.1 µM [falling, single point]

Single records, as listed above.
COc1ccc(-c2noc(CSc3nc4ccccc4c(=O)n3-c3ccccc3)n2)cc1OC is listed with Potency: inconclusive: 7.31 µM [rising, partial curve]
CN1CCC(=NNC(=O)CN(c2cccc(Cl)c2)S(C)(=O)=O)CC1 is listed with lipid storage change, negative = inhibition: inconclusive: 4.27%

Additional structures.

Row | SMILES | lipid storage change, negative = inhibition | Potency
27 | CCCC(=O)NNC(=O)CC(=O)Nc1ccccc1C(=O)O | inconclusive: -19.8% | 
28 | Cc1ccc(-c2nn(Cc3ccccc3)cc2/C=C/C(=O)O)cc1 | inconclusive: -33.5% | 
29 | COc1ccc([N+](=O)[O-])cc1NC(=O)CC1SC(=Nc2cccc(C)c2C)N(/N=C/c2cccc(OC)c2OC)C1=O (stereo unspecified) | inconclusive: 44% | 
30 | O=S1(=O)NC(c2ccccc2)CC(CC2CCCCC2)O1 (stereo unspecified) |  | inconclusive: 6.51 µM [activator, single point]
31 | CCc1ccccc1NS(=O)(=O)c1ccc2c(c1)C(C)(C)C(=O)N2C | inconclusive: -65.7% | 
32 | COC(=O)c1cn(C(=O)c2ccc(Cl)cc2)c2ccccc12 | inconclusive: 12.2% | 
33 | Cc1[nH]c2ccccc2c1SCCNC(=O)c1ccc(Br)o1 |  | inconclusive: 29.1 µM [falling, single point]
34 | Cc1csc(SCC(=O)N2CCCC2)n1 |  | inconclusive: 0.13 µM [falling, full curve, poor fit]
35 | COc1ccc(N(C(=O)COc2ccc(C)cc2)S(=O)(=O)c2ccc(C)cc2)cc1 |  | inconclusive: 29.1 µM [rising, single point]
36 | COc1ccc(-n2c(C)cc(/C=C3\C(=O)NN(c4ccccc4)C3=O)c2C)cc1 | inconclusive: 31.8% | 
37 | CC(C)(Oc1ccc(Cl)cc1)C(=O)NC1CCN(Cc2ccccc2)CC1 | inconclusive | 
38 | COCCNC(=S)N(C)C1(c2ccccc2Cl)CCCCC1=O (stereo unspecified) |  | inconclusive: 1.84 µM [activator, partial curve]
39 | Cc1ccccc1OC1C(=O)N(CC2CCCO2)C1c1ccc2c(c1)OCO2 (stereo unspecified) | inconclusive: 30.4% | 
40 | Cc1cccc2cc(COC(=O)C3CCCO3)c(=O)[nH]c12 (stereo unspecified) |  | inconclusive: 2.59 µM [activator, partial curve]
41 | Cc1c(N=Cc2cccnc2)c(=O)n(-c2ccccc2)n1C | inactive | 
42 | CC(C)Oc1c(Cl)cc(CNC(C)(C)CO)cc1Cl |  | inconclusive: 3.26 µM [falling, single point]
43 | O=C(O)c1ccccc1NC(=O)C1CCN(S(=O)(=O)c2cccc3nsnc23)CC1 | inconclusive: 26.6% | 
44 | O=C(CSc1n[nH]c(-c2ccccc2O)n1)NC1CCCCC1 | inconclusive: 142% | 
45 | COc1cc(Cl)c(CN2CCCC(CO)(Cc3cccc(Cl)c3)C2)cc1OC (stereo unspecified) | inconclusive: -37.1% | 
46 | Cc1cc2c(N=NC(=O)C3CC3c3ccccc3)c(O)[nH]c2cc1Br (stereo unspecified) | inconclusive: 2.94% | 
47 | COc1ccc(C(=O)Nc2ccc(C3(C#N)CCCC3)cc2)cc1 | inconclusive: -46.4% [at 0.369 µM] | 
48 | CCOC(=O)c1cc(-c2ccc(C)c([N+](=O)[O-])c2)nc2c1c(=O)n(C)c(=O)n2C | inconclusive: 14.2% | 
49 | O=[N+]([O-])c1ccc2ncnc(Nc3ccc4c(c3)OCCO4)c2c1 | inconclusive: 3.64% | 
50 | COc1ccccc1/C=C/C=N/NC(=O)CC1C(=O)NN=C1C (stereo unspecified) |  | inconclusive: 4.61 µM [activator, full curve, poor fit]
51 | Cn1c(N)c(C(=O)COC(=O)c2ccc(Cl)nc2)c(=O)n(C)c1=O |  | inconclusive: 6.51 µM [falling, single point]
52 | CC(C)c1onc(C(=O)N2C(C)CCCC2C)c1[N+](=O)[O-] (stereo unspecified) | inconclusive: -55.4% | 

Row | SMILES | lipid storage change, negative = inhibition | Potency
53 | CC(C)C[C@@H]1NC(=O)N(CCN2CCOCC2)C1=O | inconclusive: -20.4% | 
54 | COc1ccc2c(c1)C(=O)CCC2c1ccccc1 (stereo unspecified) |  | inconclusive: 18.4 µM [activator, partial curve]
55 | O=c1oc2cc(OCc3nn[nH]n3)ccc2c2c1CCCC2 | inconclusive: -44.8% | 
56 | CS(=O)(=O)N(CC(=O)NCc1ccco1)c1cc(C(F)(F)F)ccc1Cl |  | inconclusive: 0.0082 µM [activator, full curve, poor fit]
57 | Cc1ccc(C(=O)Nc2cc3c(oc2=O)CCCC3=O)cc1 | inconclusive: -16% | 
58 | CN(C(=O)CSc1nnc(-c2ccco2)n1C)C1CCCCC1 | inconclusive | 
59 | O=C(CSc1ccc(Br)cc1)Nc1cccc(S(=O)(=O)N2CCOCC2)c1 |  | inconclusive: 5.8 µM [falling, single point]
60 | COCCCn1c(SCC(=O)NC(C)C)nnc1-c1ccccc1 | inactive | 
61 | Cc1ccc(/C([O-])=C(/C(=S)Nc2ccc(SC(F)F)cc2)[n+]2ccccc2)cc1[N+](=O)[O-] | inconclusive: -1.2% | 
62 | COc1ccc(C(NC(=O)c2ccc(-c3ccccc3)cc2)c2ccccc2)cc1 (stereo unspecified) | inconclusive: -12% | 
63 | Cc1sc2nc(SCC(=O)c3cccs3)n(Cc3ccco3)c(=O)c2c1C |  | inconclusive: 1.84 µM [activator, full curve]
64 | COc1cccc(C2SCC(=O)N2c2ccc(Cl)cc2)c1OC (stereo unspecified) | inconclusive: -60.9% | 
65 | COc1ccc(NC(=O)Cn2ncc(Cl)c(Cl)c2=O)cc1S(=O)(=O)N1CCOCC1 |  | inconclusive: 29.1 µM [falling, single point]
66 | Cc1ccc(S(=O)(=O)NCc2ccc(C(=O)NCCN(Cc3ccccc3)C(C)C)cc2)cc1 | inconclusive: -20.9% | 
67 | Cn1cc(C(=O)NC2C3CC4CC(C3)CC2C4)cn1 (stereo unspecified) | inconclusive: -10.9% | 
68 | Nc1c(C(=O)Nc2ccc(S(=O)(=O)N3CCCC3)cc2)sc2nc3cc4c(cc3cc12)CCC4 | inactive | 
69 | CC1=NN(c2nc(-c3ccc(C)cc3)cs2)C(=O)C1N=Nc1cccc(C)c1 (stereo unspecified) |  | inconclusive: 14.6 µM [falling, partial curve, poor fit]
70 | O=C(NCc1nc2ccccc2[nH]1)C1=C[C@H](c2csc3ccccc23)C[C@H](OCc2ccc(CO)cc2)O1 | inactive | 
71 | COc1ccc(CNC(=O)c2c([S-])n(-c3ccc(C)cc3)c3cccc[n+]23)cc1 |  | inconclusive: 2.59 µM [activator, full curve, poor fit]
72 | N#C/C(=C\c1ccccc1)C(=O)N1CCC(C(N)=O)CC1 | inconclusive: -49.1% | 
73 | O=C(c1cccc(-c2ccco2)c1)N1CCCC(N2CCN(c3ccc(F)cc3)CC2)C1 (stereo unspecified) | inconclusive: -34.6% | 
74 | c1ccc(-c2nc(NCc3ccco3)c3oc4ccccc4c3n2)cc1 |  | inconclusive: 9.2 µM [activator, partial curve]
75 | COc1cc(CN2CCN(CCCc3ccccc3)C(CCO)C2)cc(OC)c1O (stereo unspecified) |  | inconclusive: 32.6 µM [falling, single point]
76 | CSc1ccccc1NC(=O)CN1CCN(Cc2ccccc2)CC1 |  | inconclusive: 6.51 µM [falling, single point]

3 entries from above in another layout:

| Row | SMILES | lipid storage change, negative = inhibition | Potency |
| --- | --- | --- | --- |
| 19 | O=C(O)CC1Sc2nc3ccccc3n2C1=O (stereo unspecified) |  | inconclusive: 0.146 µM [falling, full curve] |
| 20 | COC(=O)C1=CN(C)C=C(C(=O)OC)C1c1ccsc1 | inconclusive: -19.3% |  |
| 21 | COc1ccc(C(C)=O)cc1CSc1nc2cc(C(=O)O)ccc2c(=O)n1Cc1ccccc1 | inconclusive: 10.4% |  |

From PubChem BioAssay AID2685 (National Center for Advancing Translational Sciences (NCATS), 2010)
